Source: publication PMC5681688
These are yes or no findings as the source states them, for the method shown. Binding seen in cells or lysates may run through a third protein. Some results given as binding are weak or reduced against the parent protein; the word gives no strength.

By UniProt entry, the sequences of proteins in these tests, tags left out.
UniProt P08235: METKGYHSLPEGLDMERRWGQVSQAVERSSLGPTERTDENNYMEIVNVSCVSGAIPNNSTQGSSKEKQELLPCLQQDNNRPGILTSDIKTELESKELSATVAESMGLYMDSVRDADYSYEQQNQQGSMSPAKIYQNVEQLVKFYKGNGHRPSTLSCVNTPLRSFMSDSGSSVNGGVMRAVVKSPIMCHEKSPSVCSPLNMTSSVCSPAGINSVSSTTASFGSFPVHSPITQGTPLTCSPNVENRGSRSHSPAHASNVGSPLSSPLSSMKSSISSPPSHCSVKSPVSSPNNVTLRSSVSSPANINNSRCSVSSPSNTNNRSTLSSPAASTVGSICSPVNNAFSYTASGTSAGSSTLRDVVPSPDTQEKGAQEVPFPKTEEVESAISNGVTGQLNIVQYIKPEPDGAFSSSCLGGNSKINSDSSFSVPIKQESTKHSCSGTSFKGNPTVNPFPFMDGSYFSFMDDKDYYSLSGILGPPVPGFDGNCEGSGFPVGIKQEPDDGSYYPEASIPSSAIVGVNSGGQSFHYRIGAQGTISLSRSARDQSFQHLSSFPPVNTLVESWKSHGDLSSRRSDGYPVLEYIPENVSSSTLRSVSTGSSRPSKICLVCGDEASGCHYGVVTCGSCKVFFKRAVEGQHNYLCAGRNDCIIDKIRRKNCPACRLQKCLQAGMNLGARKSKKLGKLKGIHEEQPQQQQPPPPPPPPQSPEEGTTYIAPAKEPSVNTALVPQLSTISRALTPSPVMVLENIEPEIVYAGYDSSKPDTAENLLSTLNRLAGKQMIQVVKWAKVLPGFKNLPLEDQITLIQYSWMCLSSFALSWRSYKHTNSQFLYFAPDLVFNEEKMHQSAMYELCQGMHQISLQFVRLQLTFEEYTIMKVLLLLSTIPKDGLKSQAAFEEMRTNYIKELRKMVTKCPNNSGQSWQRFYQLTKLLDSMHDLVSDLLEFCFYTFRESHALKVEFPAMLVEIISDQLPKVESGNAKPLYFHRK

Biological target: EGFP-MR (human mineralocorticoid receptor, full length) (human) (UniProt P08235)
Assay: co-IP; EGFP-MR or EGFP-MR^CDEF precipitated with anti-GFP-coupled magnetic beads and µ columns (Miltenyi) from whole cell lysates of transfected HEK cells; immunoblot of endogenous CK2α, CK2α' and CK2β; cells treated with vehicle, aldosterone (10 nM, 1 h) or geldanamycin (2 µM, 2 h); EGFP alone as control

## Casein kinase 2 catalytic subunit alpha' (CK2α') (from UniProt P19784 1-350) (enzyme)
  binding: binds
